Data taken from US20200306295A1, “METHOD AND DEVICE FOR ANNIHILATION OF Staphylococcus aureus” (priority 2017, published 2020).

System: stationary-phase MRSA
Conditions: endogenous fluorescence

## O=C(O)c1cn(C2CC2)c2cc(N3CCNCC3)c(F)cc2c1=O [ciprofloxacin]
  intracellular uptake with laser treatment vs untreated: increased fluorescence signal
